Data published in publication doi:10.1101/2023.07.22.550030.

The chains behind the UniProt entries cited, without tags or fusion partners. Where a name states a change or a piece, a line headed by the entry shows the natural chain unless it says otherwise. A line that says so, or that is headed by a name, gives the form on record, which may keep a tag or linker.
UniProt Q9BUJ2: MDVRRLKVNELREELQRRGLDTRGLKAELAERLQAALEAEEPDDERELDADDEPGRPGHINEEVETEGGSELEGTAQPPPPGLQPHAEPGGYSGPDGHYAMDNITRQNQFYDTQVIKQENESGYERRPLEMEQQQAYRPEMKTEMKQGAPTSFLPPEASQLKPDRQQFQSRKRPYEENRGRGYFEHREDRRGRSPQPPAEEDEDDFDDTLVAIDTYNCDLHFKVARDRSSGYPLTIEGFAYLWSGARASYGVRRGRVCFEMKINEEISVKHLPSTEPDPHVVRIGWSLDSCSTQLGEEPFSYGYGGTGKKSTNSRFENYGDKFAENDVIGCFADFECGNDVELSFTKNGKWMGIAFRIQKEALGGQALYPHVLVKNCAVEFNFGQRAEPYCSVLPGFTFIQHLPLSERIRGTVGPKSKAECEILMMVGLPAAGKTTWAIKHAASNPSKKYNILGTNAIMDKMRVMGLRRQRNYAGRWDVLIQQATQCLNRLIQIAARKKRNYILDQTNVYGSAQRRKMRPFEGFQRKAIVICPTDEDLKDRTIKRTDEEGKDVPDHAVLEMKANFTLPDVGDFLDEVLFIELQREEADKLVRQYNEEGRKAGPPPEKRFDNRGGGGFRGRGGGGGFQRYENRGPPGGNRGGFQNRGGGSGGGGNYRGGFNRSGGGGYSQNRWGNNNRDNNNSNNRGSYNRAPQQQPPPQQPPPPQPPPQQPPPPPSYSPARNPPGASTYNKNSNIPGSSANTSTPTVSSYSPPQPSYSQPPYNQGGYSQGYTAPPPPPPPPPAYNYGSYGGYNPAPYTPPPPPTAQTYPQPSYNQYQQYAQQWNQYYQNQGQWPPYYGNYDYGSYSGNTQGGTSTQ
FLAG-tagged hnRNPUL1 ΔWA (Walker A motif mutant) (Q9BUJ2, form named): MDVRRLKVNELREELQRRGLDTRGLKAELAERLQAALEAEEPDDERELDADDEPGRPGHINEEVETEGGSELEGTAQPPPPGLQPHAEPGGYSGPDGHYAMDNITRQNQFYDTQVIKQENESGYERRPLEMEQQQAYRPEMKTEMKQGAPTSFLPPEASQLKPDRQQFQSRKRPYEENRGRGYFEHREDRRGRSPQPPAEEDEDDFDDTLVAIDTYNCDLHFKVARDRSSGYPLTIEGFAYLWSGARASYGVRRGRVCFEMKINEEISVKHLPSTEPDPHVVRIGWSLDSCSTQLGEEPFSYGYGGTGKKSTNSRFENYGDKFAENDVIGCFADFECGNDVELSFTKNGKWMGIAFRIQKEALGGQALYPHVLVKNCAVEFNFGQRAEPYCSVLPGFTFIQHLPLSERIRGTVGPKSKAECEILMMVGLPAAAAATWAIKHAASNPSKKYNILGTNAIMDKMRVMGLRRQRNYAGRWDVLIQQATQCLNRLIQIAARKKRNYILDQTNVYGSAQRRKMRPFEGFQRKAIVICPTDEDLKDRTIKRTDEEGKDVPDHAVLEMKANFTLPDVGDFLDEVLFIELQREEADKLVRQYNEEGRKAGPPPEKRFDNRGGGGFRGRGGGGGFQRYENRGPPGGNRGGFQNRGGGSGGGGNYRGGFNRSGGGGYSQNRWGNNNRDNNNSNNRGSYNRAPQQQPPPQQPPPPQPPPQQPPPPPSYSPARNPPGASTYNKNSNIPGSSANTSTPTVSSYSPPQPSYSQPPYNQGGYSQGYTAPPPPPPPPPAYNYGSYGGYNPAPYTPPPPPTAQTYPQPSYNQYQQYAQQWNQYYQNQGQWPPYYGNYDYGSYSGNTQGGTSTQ
UniProt P67775: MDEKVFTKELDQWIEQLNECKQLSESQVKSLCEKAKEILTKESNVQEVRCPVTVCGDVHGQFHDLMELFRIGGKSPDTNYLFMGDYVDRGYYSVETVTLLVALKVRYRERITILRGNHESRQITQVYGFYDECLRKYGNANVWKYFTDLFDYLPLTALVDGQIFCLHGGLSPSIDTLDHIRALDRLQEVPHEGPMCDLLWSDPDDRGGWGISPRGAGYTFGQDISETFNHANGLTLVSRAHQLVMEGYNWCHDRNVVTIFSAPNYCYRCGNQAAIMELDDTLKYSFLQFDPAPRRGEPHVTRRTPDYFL

Key:
[1] = biological target: FLAG-tagged hnRNPUL1 WT (full length) (human) (UniProt Q9BUJ2); assay: co-IP
[2] = biological target: FLAG-tagged hnRNPUL1 ΔWA (Walker A motif mutant) (human) (UniProt Q9BUJ2); assay: co-IP

**Q.** What does the source list for PPP2AC (from UniProt P67775) (enzyme)?
**A.** binding [1]: binds; binding [2]: binds

Results are given in words; binding and its absence hold for the method and conditions named. In cells and extracts the contact can be indirect. A result given as binding can be weak or reduced; the word gives no strength.
